# Measured values as given in patent EP0155871A1, “Compounds possessing inhibiting properties in the lignin formation in plants and process for the reduction of their lignin content” (Etablissement Public dit: CENTRE NATIONAL DE LA RECHERCHE …, priority 1984, dated 1985).
# System: plants de maïs
# Assay: specificity of action: general metabolism markers in treated maize plants
# Format: in vivo
# Conditions: plants de maïs âgés de 30 jours
row,SMILES,teneurs en chlorophilles
1,"COc1cc(C=CC(=O)OC(C)(C)C)ccc1O [FTB, férulate de tertiobutyle]",n'apparaissent pas significativement affectées
2,"CC(C)(C)OC(=O)C=Cc1ccc(O)cc1 [PCB, p-Coumarate de tertiobutyle]",n'apparaissent pas significativement affectées
3,"COc1cc(C=CC(=O)OC(C)(C)C)cc(OC)c1O [STB, Sinapate de tertiobutyle]",n'apparaissent pas significativement affectées

# Some entries repeat one wording, which the source may state once for all of them.
